Measured values: patent publication US20030096349, “N4 virion single-stranded DNA dependent RNA polymerase” (The University of Chicago, published 2003)
Tags and fusion partners may be left off the protein sequences shown.

Target: T1, mini-vRNAP (N4 virion RNA polymerase central domain) (Bacteriophage N4) (UniProt Q859P9)
T1 sequence: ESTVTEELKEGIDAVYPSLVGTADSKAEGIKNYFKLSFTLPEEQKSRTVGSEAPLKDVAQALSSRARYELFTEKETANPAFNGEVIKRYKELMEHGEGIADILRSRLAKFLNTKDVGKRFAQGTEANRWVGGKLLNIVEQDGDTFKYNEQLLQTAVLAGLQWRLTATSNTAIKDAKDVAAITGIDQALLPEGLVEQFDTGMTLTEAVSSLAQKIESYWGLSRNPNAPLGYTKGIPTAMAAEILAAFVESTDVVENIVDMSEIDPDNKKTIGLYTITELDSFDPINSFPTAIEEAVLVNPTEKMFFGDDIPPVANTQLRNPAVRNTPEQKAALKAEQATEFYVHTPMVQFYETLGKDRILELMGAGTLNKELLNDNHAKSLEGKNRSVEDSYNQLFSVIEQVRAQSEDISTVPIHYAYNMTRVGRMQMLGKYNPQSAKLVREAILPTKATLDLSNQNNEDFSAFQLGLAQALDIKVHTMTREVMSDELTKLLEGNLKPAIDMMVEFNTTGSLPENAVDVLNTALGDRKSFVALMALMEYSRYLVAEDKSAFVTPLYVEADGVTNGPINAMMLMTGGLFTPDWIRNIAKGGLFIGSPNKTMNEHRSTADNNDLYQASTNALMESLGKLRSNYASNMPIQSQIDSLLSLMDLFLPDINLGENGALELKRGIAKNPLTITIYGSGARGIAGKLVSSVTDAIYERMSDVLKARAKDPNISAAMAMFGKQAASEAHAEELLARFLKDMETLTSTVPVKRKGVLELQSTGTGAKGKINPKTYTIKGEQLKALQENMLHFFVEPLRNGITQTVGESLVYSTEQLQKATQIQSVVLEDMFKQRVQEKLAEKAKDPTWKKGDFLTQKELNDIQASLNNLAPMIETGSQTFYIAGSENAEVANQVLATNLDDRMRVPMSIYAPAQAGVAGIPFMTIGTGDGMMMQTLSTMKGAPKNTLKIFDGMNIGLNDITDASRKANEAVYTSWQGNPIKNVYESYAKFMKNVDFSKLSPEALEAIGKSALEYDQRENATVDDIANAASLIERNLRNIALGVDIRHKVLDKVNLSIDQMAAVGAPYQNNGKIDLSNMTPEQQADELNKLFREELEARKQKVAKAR
Assay: activity assay
Details: in vitro transcription; digoxigenin-11-UTP and biotin-16-UTP give RNA yields comparable to UTP; purified recombinant protein; protein details: N-terminal His6 (pBAD B), TALON and MonoQ; single-stranded DNA

For “TCCCAGACAAAAGGTTAAGATTTCATACAGGATTGGATGCATTACTTCATCCAAAAGAAGCGGAGCTTC [control template]”, the “activity on this sequence” value was “active”.
